Assay [1] has as its target T1, phospholipase Cγ1 (PLCγ1), overexpressed from PRK5-PLCγ1 (UniProt P19174).
T1 sequence: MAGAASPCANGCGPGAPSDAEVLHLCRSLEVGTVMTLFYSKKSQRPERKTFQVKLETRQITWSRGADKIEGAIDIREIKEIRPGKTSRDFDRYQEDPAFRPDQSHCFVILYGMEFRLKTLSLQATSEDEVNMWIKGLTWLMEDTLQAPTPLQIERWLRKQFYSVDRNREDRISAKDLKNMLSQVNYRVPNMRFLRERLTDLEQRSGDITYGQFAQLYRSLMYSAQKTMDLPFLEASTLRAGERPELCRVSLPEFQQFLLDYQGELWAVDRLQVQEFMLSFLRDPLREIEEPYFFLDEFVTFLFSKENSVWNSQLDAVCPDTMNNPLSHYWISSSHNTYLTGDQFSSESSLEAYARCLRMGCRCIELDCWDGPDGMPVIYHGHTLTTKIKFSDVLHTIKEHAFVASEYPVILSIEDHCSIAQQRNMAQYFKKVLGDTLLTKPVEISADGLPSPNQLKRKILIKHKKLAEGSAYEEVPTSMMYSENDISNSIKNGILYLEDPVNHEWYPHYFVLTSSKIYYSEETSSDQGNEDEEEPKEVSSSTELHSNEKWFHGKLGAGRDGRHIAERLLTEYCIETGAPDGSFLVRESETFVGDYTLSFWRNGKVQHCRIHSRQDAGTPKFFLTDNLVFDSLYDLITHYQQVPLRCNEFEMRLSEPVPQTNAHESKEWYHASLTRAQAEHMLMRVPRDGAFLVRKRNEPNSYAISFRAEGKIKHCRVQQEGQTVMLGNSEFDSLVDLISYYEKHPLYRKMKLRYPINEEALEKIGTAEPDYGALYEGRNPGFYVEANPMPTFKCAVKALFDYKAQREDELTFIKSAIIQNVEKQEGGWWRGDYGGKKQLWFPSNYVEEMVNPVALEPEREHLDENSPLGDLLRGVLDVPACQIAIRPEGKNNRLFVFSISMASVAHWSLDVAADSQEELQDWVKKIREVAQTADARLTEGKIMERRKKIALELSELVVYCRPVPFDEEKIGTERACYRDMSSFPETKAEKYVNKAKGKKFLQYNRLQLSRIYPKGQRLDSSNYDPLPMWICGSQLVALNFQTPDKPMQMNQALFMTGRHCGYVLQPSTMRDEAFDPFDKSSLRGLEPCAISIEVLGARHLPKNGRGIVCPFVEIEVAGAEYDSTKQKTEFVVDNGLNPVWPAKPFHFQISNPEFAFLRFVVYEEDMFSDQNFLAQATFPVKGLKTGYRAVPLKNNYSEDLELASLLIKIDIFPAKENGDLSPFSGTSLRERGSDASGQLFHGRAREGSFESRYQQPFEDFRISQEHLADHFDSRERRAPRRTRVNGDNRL
The assay is described as follows: FRET or BRET; steady-state FRET by acceptor photo-bleaching in fixed MDA-MB-231 co-expressing PLCγ1 and PDK1; stained with anti-PLCγ1 and anti-PDK1 antibodies and Alexa-488 and Alexa-555 secondary antibodies; EGF 50 ng/ml for 3 min; measured at protrusions near the plasma membrane. On the technique in general: Bioluminescence resonance energy transfer reports proximity on the nanometre scale.

Assay [2] deals with T1, phospholipase Cγ1 (PLCγ1), overexpressed from PRK5-PLCγ1. The assay is described as follows: condition: only cells treated with 50 μM 2-O-Bn-InsP5; FRET or BRET; as a1, but cells treated with 50 μM 2-O-Bn-InsP5 for 30 minutes before and during EGF stimulation.
In assay [3] the target is T2, phospholipase Cγ1 (PLCγ1), endogenous (human (endogenous in MDA-MB-231)) (UniProt P19174).
T2 sequence: T1 sequence
The assay is described as follows: co-IP; endogenous proteins from MDA-MB-231 lysate (50 mM Tris pH 8.0, 50 mM KCl, 1% NP-40); anti-PLCγ1 antibody cross-linked to protein G Dynabeads, overnight at 4 °C; blot with anti-PDK1; cells stimulated with EGF 50 ng/ml, untreated or treated with 50 μM 2-O-Bn-InsP5 for one hour.

Results are given in words; binding and its absence hold for the method and conditions named. Binding seen in cells or lysates may run through a third protein. Some binding calls cover weakened binding; strength is not graded here.

B1: 3-phosphoinositide-dependent protein kinase 1 (PDK1), overexpressed from pOZ-PDK1 (enzyme, UniProt O15530 1-556)
chain: MARTTSQLYDAVPIQSSVVLCSCPSPSMVRTQTESSTPPGIPGGSRQGPAMDGTAAEPRPGAGSLQHAQPPPQPRKKRPEDFKFGKILGEGSFSTVVLARELATSREYAIKILEKRHIIKENKVPYVTRERDVMSRLDHPFFVKLYFTFQDDEKLYFGLSYAKNGELLKYIRKIGSFDETCTRFYTAEIVSALEYLHGKGIIHRDLKPENILLNEDMHIQITDFGTAKVLSPESKQARANSFVGTAQYVSPELLTEKSACKSSDLWALGCIIYQLVAGLPPFRAGNEYLIFQKIIKLEYDFPEKFFPKARDLVEKLLVLDATKRLGCEEMEGYGPLKAHPFFESVTWENLHQQTPPKLTAYLPAMSEDDEDCYGNYDNLLSQFGCMQVSSSSSSHSLSASDTGLPQRSGSNIEQYIHDLDSNSFELDLQFSEDEKRLLLEKQAGGNPWHQFVENNLILKMGPVDKRKGLFARRRQLLLTEGPHLYYVDPVNKVLKGEIPWSQELRPEAKNFKTFFVHTPNRTYYLMDPSGNAHKWCRKIQEVWRQRYQSHPDAAVQ
As for B1, the values for the binding result in assay [1] and in assay [2] were “binds” and “no binding”, respectively.

B2: 3-phosphoinositide-dependent protein kinase 1 (PDK1), endogenous (enzyme, UniProt O15530 1-556)
chain: B1 chain
Take B2: the binding entry in assay [3] was “binds”.

The values above are taken from article PMC4873738, “A Small Molecule Inhibitor of PDK1/PLCγ1 Interaction Blocks Breast and Melanoma Cancer Cell Invasion” (Scientific Reports, 2016).
